Experimental data as given in patent publication US8022035B2 (7TM Pharma A/S, priority 2005, dated 2011).

Test: general procedure: Fmoc solid-phase peptide synthesis; PAL Peg-PS resin; HCTU
Details: whole synthesis, 215 nm

| Substance | purity (crude or final not stated) [%] |
| --- | --- |
| [Glu10, Leu17, Thr30]PP2-36 | 92.0 |
| [Glu10,Nle17,Nle30]PP2-36 | 98.8 |
| [Nle17, Nle30]PP2-36 | 96.0 |
